# Out of some 360,000 compounds screened, about 9,100 (2.5%) were called active. The inconclusive results got no clear call from the source; some entries with a clear call stand among them for comparison. Rule as the data show it: active = max response below about -50%; inconclusive = no clear call, values can overlap the other calls; inactive = above that.
# Amino acid sequences for entries named in this document (tags omitted).
# UniProt P35462, whole entry, looked up: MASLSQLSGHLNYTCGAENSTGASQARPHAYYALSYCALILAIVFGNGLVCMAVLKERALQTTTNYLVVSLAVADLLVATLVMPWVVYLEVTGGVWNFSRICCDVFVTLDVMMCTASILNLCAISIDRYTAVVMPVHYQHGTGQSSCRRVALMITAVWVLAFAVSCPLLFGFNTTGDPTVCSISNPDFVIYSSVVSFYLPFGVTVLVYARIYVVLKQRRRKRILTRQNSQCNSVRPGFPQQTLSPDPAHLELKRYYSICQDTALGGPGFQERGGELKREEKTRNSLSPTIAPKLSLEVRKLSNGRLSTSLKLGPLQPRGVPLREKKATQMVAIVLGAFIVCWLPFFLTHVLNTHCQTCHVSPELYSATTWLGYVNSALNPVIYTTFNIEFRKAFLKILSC
# Target: D(3) dopamine receptor (Homo sapiens) (UniProt P35462)
# Assay: qHTS of D3 Dopamine Receptor Antagonist: qHTS
# Conditions: D3R cells, DiscoveRx beta-arrestin luminescence, antagonist mode; hits give low values
# In short: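 Cells expressing the human receptor were seeded at 1500 cells/well, incubated overnight at 37 degrees C in 5% CO2, then exposed to library compounds with dopamine controls for 90 minutes at 37 degrees C before luminescent detection.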
# % is scaled to controls: 0 for no effect and ±100 for the full control effect.
row,Structure (SMILES),"max response, negative = inhibition"
1,CC(C)C[C@H]1CNC(=S)N1CC1CCN(CC2CCCC2)CC1,inconclusive: -45.2%
2,C=CCn1c(N)c(C(=O)N2CCN(C)CC2)sc1=S,active: -54%
3,O=C(c1ccc(=O)[nH]n1)N1CCN(S(=O)(=O)c2cccc(F)c2)CC1,inactive: -19.1%
4,COc1cc(C(=O)NNC(=O)c2ccc(NC(=O)C(C)(C)C)cc2)cc(OC)c1OC,inconclusive: -48%
5,CCN1CC2=C(OC(N)=C(C#N)C2c2cccs2)/C(=C/c2cccs2)C1 (stereo not given),inconclusive: -36.1%
6,O=c1[nH]c(=S)[nH]c2c1CN(Cc1ccc(F)cc1)CC2,inconclusive: -38.5%
7,Cc1cc(C(=O)OCC(=O)Nc2ccccc2C#N)c(C)o1,inconclusive: -42.9%
8,O=C(CSc1nc2ccccc2[nH]1)c1cccs1,inconclusive: -40.8%
9,CCCCn1c(N)c(N(CC(C)C)C(=O)c2cc(Br)c(Br)s2)c(=O)[nH]c1=O,inactive: -0.951%
10,CCCSc1nnc2c(n1)OC(c1cccn1C)N(C(C)=O)c1ccccc1-2 (stereo not given),inconclusive: -35.1%
11,C/C(=N\NC(=O)c1cc2ccccc2cc1O)c1ccccn1,inconclusive: -43.4%
12,C[C@H](CO)N1C[C@H](C)[C@@H](CN(C)Cc2ccc(Cl)c(Cl)c2)OCCCC[C@H](C)Oc2ccc(NC(=O)CCC(F)(F)F)cc2C1=O,inactive: 0%
13,O=C(NCCCN1CCCC1)c1ccc2c(c1)N(Cc1ccc(F)cc1)C(=O)c1ccccc1S2=O (stereo not given),inconclusive: -37.4%
14,COC(=O)c1ccc(C(=O)OC)c(NC(=O)CSc2cccc[n+]2[O-])c1,inconclusive: -40%
15,CCN(CC)c1ccc2cc(-c3nnc(-c4ccccc4)o3)c(=O)oc2c1,inactive: 1.67%
16,CCc1cccc(CC)c1NC(=O)CO/N=C(\N)CC(=O)NC1CCCCC1,inactive: 15.2%
17,Oc1ccccc1CNCCCNCc1ccccc1O,inconclusive: -31.2%
18,Cc1ccc(C(CC(=O)N2CCOCC2)c2ccco2)cc1 (stereo not given),inconclusive: -36%
19,CC(/C=N/n1c(-c2ccc(C)cc2)n[nH]c1=S)=C\c1ccco1,inconclusive: -42.9%
20,CC1=C(C(=O)NCc2ccccc2)C(c2cccs2)n2ncnc2N1 (stereo not given),inconclusive: -32.8%
21,OCCN(CCO)Cc1csc2ccccc12,inconclusive: -34.1%
22,COc1ccccc1CNC(=O)CS(=O)(=O)Cc1ccccc1,inactive: 15.6%
23,COc1ccc(NC2=C(C(C)=O)C(c3ccc4c(c3)OCO4)C(C(C)=O)C(C)(O)C2)cc1 (stereo not given),inconclusive: -38.3%
24,COc1cc(OC)c(CN2CCC(Cc3ccccc3)CC2)cc1Br,inconclusive: -48.2%
25,COc1ccccc1N1C(=N)S/C(=C\c2ccc(-c3ccccc3C(=O)O)o2)C1=O,inactive: -3.46%
26,Cn1c(SCC(=O)NCCC2=CCCCC2)nnc1C(F)(F)F,active: -70%
27,COc1ccccc1N=c1scc(-c2ccc3c(c2)NC(=O)CO3)n1CC1CCCO1 (stereo not given),active: -75%
28,Cc1c(NS(=O)(=O)c2cccc(C(=O)NCc3ccccc3)c2)c(=O)n(-c2ccccc2)n1C,inconclusive: -44.8%

row,Structure (SMILES),"max response, negative = inhibition"
1,CS(=O)(=O)c1cccc(C(=O)NCc2ccc(F)cc2)c1,inconclusive: -34.3%
2,COc1ccc(OCC(O)CNC2CCCC2)cc1 (stereo not given),inactive: -11%
3,CN1C(=O)C(C)(C)c2cc(S(=O)(=O)NCc3ccc(C(=O)NCc4ccco4)cc3)ccc21,inconclusive: -40.1%
4,O=C(C1=C(O)C(=O)N(c2nc3ccc(Cl)cc3s2)C1c1ccco1)c1ccco1 (stereo not given),inactive: 16.2%
5,O=C(CCN1CCN(c2ccccc2)CC1)Nc1ccc(Cl)cc1,active: -62.2%
6,CCn1c(SCC(=O)c2ccc3c(c2)OCCO3)nnc1-c1ccco1,inconclusive: -37%
7,O=C(Nc1ccc(F)cc1)c1ccc2nc[nH]c2c1,inconclusive: -41.4%
8,COc1cc(/C=C/C(=O)OCC(=O)N2c3ccccc3NC(=O)C2(C)C)cc(OC)c1OC,inactive: 55.9%
9,CCOC(=O)c1ccc(N2C(=O)C3ON(c4ccccc4)C(c4ccco4)C3C2=O)cc1 (stereo not given),inconclusive: -30.3%
10,COc1ccc(OCCCN2CCc3ccccc3C2)cc1,active: -109%
11,O=C1OC[C@@H]2CCCN2C(=O)[C@H](CC(=O)N(CCO)Cc2ccccc2)C/C=C\CC[C@H]1Cc1ccc(F)cc1,inconclusive: -37.2%
12,CC(CC(=O)Nc1ccc2c(c1)c(=O)n(C)n2-c1ccccc1)c1ccccc1 (stereo not given),active: -78.3%
13,CC(C)NC(C(=O)Nc1cc(Cl)cc(Cl)c1)c1ccccc1 (stereo not given),inconclusive: -34%
14,CC(C)NC(=O)c1ccccc1S(=O)(=O)c1ccccc1C#N,inconclusive: -38.7%
15,COc1ccc(CN2CCN(Cc3c[nH]c4ccccc34)CC2)cc1,inconclusive: -43.6%
16,CCOC(=S)SCC(=O)Nc1nccs1,inactive: -3.86%
17,CCc1ccc(NC(=O)CCNS(=O)(=O)c2cccc3nonc23)cc1,active: -63.3%
18,Cc1c(CN2CCC(CO)(CCOc3ccccc3)CC2)[nH]c2c(Cl)cccc12,inconclusive: -43.9%
19,COCCn1c(-c2ccc(Cl)cc2)cnc1SCC(=O)NCc1cccs1,inconclusive: -31.6%
20,O=C(c1ccc(F)cc1)N1CCC(O)(c2cccnc2)CC1,inactive: -10.9%
21,Cc1ccc(C)c(N(C(=O)c2nsc(Cl)c2Cl)C(C(=O)NC2CCCC2)c2ccc(O)cc2)c1 (stereo not given),active: -62%
22,CCC(=O)NC(c1cccc([N+](=O)[O-])c1)c1c(OC(C)=O)ccc2ccccc12 (stereo not given),inconclusive: -31%
23,Cc1ccc2cc3cc(C(=O)NC4CCCCC4)oc3nc2c1,inactive: 6.53%
24,CCN(CCCNc1cc2c(c(N)c1S(=O)(=O)O)C(=O)c1ccccc1C2=O)c1ccccc1,inconclusive: -37.3%
25,O=C(Nc1ccc(Cl)c(Cl)c1)OCc1cncs1,inconclusive: -35.9%
26,CCN(CC(=O)Nc1ccc(NC(C)=O)cc1)C(=O)/C=C/c1ccco1,inactive: 11%
27,CC(C)(C)OC(=O)N1CCC(C(=O)Nc2cccc(C(=O)N3CCCCC3)c2)CC1,inconclusive: -39.1%

# Four entries picked at random from those above:
row,Structure (SMILES),"max response, negative = inhibition"
9,CCOC(=O)c1ccc(N2C(=O)C3ON(c4ccccc4)C(c4ccco4)C3C2=O)cc1 (stereo not given),inconclusive: -30.3%
21,Cc1ccc(C)c(N(C(=O)c2nsc(Cl)c2Cl)C(C(=O)NC2CCCC2)c2ccc(O)cc2)c1 (stereo not given),active: -62%
13,CC(C)NC(C(=O)Nc1cc(Cl)cc(Cl)c1)c1ccccc1 (stereo not given),inconclusive: -34%
3,CN1C(=O)C(C)(C)c2cc(S(=O)(=O)NCc3ccc(C(=O)NCc4ccco4)cc3)ccc21,inconclusive: -40.1%

# Source: PubChem BioAssay AID652054 (National Center for Advancing Translational Sciences (NCATS), 2013)
